Values from PubChem BioAssay AID743454 (Peter MacCallum Cancer Centre, 2014).

- Purpose: 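Search for knock-downs that restore vorinostat killing in resistant colon cancer cells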 (primary screen)
- Cells: human HCT116-VR colon cancer cells, selected for vorinostat resistance
- Reagent: siRNA pool against human genes, 40 nM siRNA pool
- Timing: vorinostat for 24 h, read-out about 72 h after transfection
- Treatment: vorinostat at 2.5 µM final
- Measured: 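Two measures, CellTiter-Fluor viability and luminescent caspase 3/7 activity, each as fold change against same-plate mock wells, mean of duplicates, then screen-wide robust z-score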
- Scale: viability robust z-score: higher = more viable cells than screen typical; caspase robust z-score: higher = more caspase 3/7 activity than screen typical
- Call rule: 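a knock-down is a hit when classed RV1 or RV2 for lowered viability, or CA1 or CA2 for caspase activation; those lethal without drug were dropped; hits were retested singly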
The deposit covers about 18,000 reagents; below is a part drawn at random. 450 of them (2.5%) were called active. 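Single biological run; no consistent viability z cut-off exists, so the class columns, not z-scores, define the calls.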 A number with no mark means an inactive call.

After knock-down of ZNF236 (zinc finger protein 236) the results were viability hit class no change; caspase hit class no change; viability robust z-score -0.12; caspase robust z-score -1.18. RTCA (RNA 3'-terminal phosphate cyclase) scored viability hit class no change; caspase hit class no change; viability robust z-score -0.18; caspase robust z-score 1.22. With knock-down of STKLD1 (serine/threonine kinase like domain containing 1), the record shows viability hit class no change; caspase hit class no change; viability robust z-score -2.5; caspase robust z-score 1.57. For LGI4 (leucine rich repeat LGI family member 4), the values are viability hit class no change; caspase hit class no change; viability robust z-score -0.67; caspase robust z-score 1.49. For LETMD1 (LETM1 domain containing 1), the entry reads viability hit class no change; caspase hit class no change; viability robust z-score 0.73; caspase robust z-score 0.02. With knock-down of NOP53 (NOP53 ribosome biogenesis factor), the record shows viability hit class no change; caspase hit class no change; viability robust z-score -2.8; caspase robust z-score -0.06.

TRPC7 showed viability hit class no change; caspase hit class no change; viability robust z-score -2.8; caspase robust z-score 2.26. After knock-down of GIPR (gastric inhibitory polypeptide receptor), the record shows viability hit class no change; caspase hit class no change; viability robust z-score 0.44; caspase robust z-score -0.6.

Ordered by “viability robust z-score” (ascending): 2 of the entries above
TRPC7 | viability hit class: no change; caspase hit class: no change; viability robust z-score: -2.8; caspase robust z-score: 2.26
GIPR (gastric inhibitory polypeptide receptor) | viability hit class: no change; caspase hit class: no change; viability robust z-score: 0.44; caspase robust z-score: -0.6

Continued:
Silencing of NDUFS3 (NADH:ubiquinone oxidoreductase core subunit S3) gave: viability hit class no change; caspase hit class no change; viability robust z-score -0.88; caspase robust z-score 0.41. Silencing of LAMTOR1 (late endosomal/lysosomal adaptor, MAPK and MTOR activator 1) resulted in: viability hit class no change; caspase hit class no change; viability robust z-score 0.59; caspase robust z-score 0.02. Depletion of PAK1 (p21 (RAC1) activated kinase 1) gave: viability hit class no change; caspase hit class no change; viability robust z-score 1.19; caspase robust z-score 0.98. Knock-down of SPTLC1 (serine palmitoyltransferase long chain base subunit 1) resulted in: viability hit class no change; caspase hit class no change; viability robust z-score -0.61; caspase robust z-score 3.08. Depletion of NUS1 (NUS1 dehydrodolichyl diphosphate synthase subunit) came out at: viability hit class no change; caspase hit class no change; viability robust z-score 0.9; caspase robust z-score 0.46. With knock-down of F8A2 (coagulation factor VIII associated 2), the record shows viability hit class no change; caspase hit class no change; viability robust z-score -1.36; caspase robust z-score 3.81.

KIF27 (kinesin family member 27) scored viability hit class no change; caspase hit class no change; viability robust z-score 0.08; caspase robust z-score -0.97. Depletion of PPP1R12B (protein phosphatase 1 regulatory subunit 12B) resulted in: viability hit class no change; caspase hit class no change; viability robust z-score -1.41; caspase robust z-score -0.66. MIP (major intrinsic protein of lens fiber) showed viability hit class no change; caspase hit class no change; viability robust z-score 1.4; caspase robust z-score -0.42. Silencing of NPAS1 (neuronal PAS domain protein 1) came out at: viability hit class no change; caspase hit class no change; viability robust z-score -0.3; caspase robust z-score 1.48. Depletion of TMEM223 (transmembrane protein 223) gave: viability hit class no change; caspase hit class no change; viability robust z-score -0.08; caspase robust z-score -0.82. Against DEF8 (differentially expressed in FDCP 8 homolog), the entry reads viability hit class no change; caspase hit class no change; viability robust z-score 1.14; caspase robust z-score -0.15.

Against CDH18 (cadherin 18), the values are viability hit class no change; caspase hit class no change; viability robust z-score -0.68; caspase robust z-score -1.41.
